Results deposited as PubChem BioAssay AID743454 (Peter MacCallum Cancer Centre, 2014)
Screen: 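Search for knock-downs that restore vorinostat killing in resistant colon cancer cells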 (primary screen). Cells: human HCT116-VR colon cancer cells, selected for vorinostat resistance. Reagents: siRNA pool against human genes, 40 nM siRNA pool. Time to read-out: vorinostat for 24 h, read-out about 72 h after transfection. Conditions: vorinostat at 2.5 µM final. Detection: 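Two measures, CellTiter-Fluor viability and luminescent caspase 3/7 activity, each as fold change against same-plate mock wells, mean of duplicates, then screen-wide robust z-score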. Direction: viability robust z-score: higher = more viable cells than screen typical; caspase robust z-score: higher = more caspase 3/7 activity than screen typical. Call rule: 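Hits are knock-downs in viability class RV1/RV2 or caspase class CA1/CA2, excluding ones that killed cells in the no-drug cell-count arm; hits then retested with single siRNAs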.
Here is a random part of about 18,000 reagents tested. Of all reagents, 450 (2.5%) were called active. 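Single biological run; no consistent viability z cut-off exists, so the class columns, not z-scores, define the calls.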 No sequences are given here.

| gene knocked down | viability hit class | caspase hit class | viability robust z-score | caspase robust z-score | activity call |
| --- | --- | --- | --- | --- | --- |
| SIX1 | no change | no change | -0.46 | 0.02 | inactive |
| CYP4B1 | no change | no change | 0.56 | -0.03 | inactive |
| MED4 | no change | no change | -0.77 | -0.08 | inactive |
| CNR1 | no change | no change | 1.04 | -0.38 | inactive |
| SMG7 | no change | no change | -0.73 | 0.29 | inactive |
| LAMC3 | no change | no change | -0.1 | -0.8 | inactive |
| GSPT2 | no change | no change | 1.21 | 0.14 | inactive |
| VAMP3 | no change | no change | -1.5 | 0.55 | inactive |
| KLC1 | no change | no change | 0.04 | 0.38 | inactive |
| FAM149A | no change | no change | 0.88 | -0.94 | inactive |
| NLGN4X | no change | no change | -1.44 | -0.54 | inactive |
| XKR7 | no change | no change | 0.69 | 0.69 | inactive |
| SMYD5 | no change | no change | -0.15 | -1 | inactive |
| TUBB | no change | no change | -0.3 | 1.22 | inactive |
| RPS6KA6 | no change | no change | -0.38 | 1.97 | inactive |
| MIR1-1HG | no change | no change | -1.03 | -0.76 | inactive |
| CSPG4 | no change | no change | 0.29 | 0.97 | inactive |
| PNRC2 | no change | no change | 0.53 | -0.48 | inactive |
| VAV3 | no change | no change | 1.27 | 0.11 | inactive |
| H2AC15 | no change | no change | -0.01 | 0.33 | inactive |
| NCK1 | no change | no change | 0.56 | -0.5 | inactive |

Targets above whose target name begins with S or s (3):
| gene knocked down | viability hit class | caspase hit class | viability robust z-score | caspase robust z-score | activity call |
| --- | --- | --- | --- | --- | --- |
| SIX1 | no change | no change | -0.46 | 0.02 | inactive |
| SMG7 | no change | no change | -0.73 | 0.29 | inactive |
| SMYD5 | no change | no change | -0.15 | -1 | inactive |

The listing continues:
| gene knocked down | viability hit class | caspase hit class | viability robust z-score | caspase robust z-score | activity call |
| --- | --- | --- | --- | --- | --- |
| HSPA8 | no change | no change | -0.16 | -1.39 | inactive |
| ARHGEF6 | no change | no change | 0.76 | -0.78 | inactive |
| CT55 | no change | no change | 1.02 | -0.7 | inactive |
| BHLHA15 | no change | no change | 0.08 | 0.55 | inactive |
| KDELR1 | no change | no change | 1.03 | -0.26 | inactive |
| MANBA | no change | no change | 1.94 | -0.72 | inactive |
| PLGLB1 | no change | no change | 0.32 | 0.07 | inactive |
| PSME2 | no change | no change | -1.75 | -1.1 | inactive |
| PHACTR3 | no change | no change | -0.26 | -0.58 | inactive |
| POFUT1 | no change | no change | -1.12 | 1.8 | inactive |
| GCSAM | no change | no change | 1.17 | -0.23 | inactive |
| SLC7A6OS | no change | no change | -1.9 | 1.05 | inactive |
| PGC | no change | no change | -0.84 | -0.34 | inactive |
| ECT2L | no change | no change | 0.05 | -1.29 | inactive |
| KLHL13 | no change | no change | -1.04 | -0.12 | inactive |
| CSDE1 | no change | no change | 1.15 | 0.3 | inactive |
| HMGB1P1 | no change | no change | 1.2 | -0.18 | inactive |
| CHRNA4 | no change | no change | -0.77 | 1.14 | inactive |
| TMED3 | no change | no change | -3.15 | 2.97 | inactive |
| STXBP1 | no change | no change | 0.59 | 0.12 | inactive |
| EIF4A1 | RV2 (reduced viability) | no change | -3.01 | -0.59 | active |
| OR4K17 | no change | no change | 1.43 | -0.84 | inactive |
| PGBD1 | no change | no change | -0.06 | -0.01 | inactive |
| RNF138 | no change | no change | -2.69 | 2.86 | inactive |
| GLRX3 | no change | no change | -0.68 | 0.4 | inactive |
| RPRD1A | no change | no change | -0.26 | 1.32 | inactive |
| DLL4 | no change | no change | -0.29 | 0.47 | inactive |
| WDR20 | no change | no change | 0.17 | 1.04 | inactive |
| POU3F4 | no change | no change | -0.04 | 1.27 | inactive |
| EFNA3 | no change | no change | 0.03 | -0.56 | inactive |
| SLC25A32 | no change | no change | -0.44 | -1.2 | inactive |
| SMAD5 | no change | no change | 1.94 | -0.5 | inactive |
| SOCS1 | no change | no change | 0.34 | 1.41 | inactive |
| RIMKLB | no change | no change | 1.18 | -0.92 | inactive |
| ITGA3 | no change | no change | 2.17 | 0.16 | inactive |
| RBM44 | no change | no change | 0.68 | -0.1 | inactive |
